In paper PMC4394480:

Experiments:
[1] = biological target: T1, tetraspanin 8 (human (endogenous in glioma cell lines and glioma tissues)) (UniProt P19075); experiment: co-IP; lysates of four human glioma tissues (grade 3-4); IP lysis buffer containing 3% CHAPS, indicated antibody overnight at 4 °C, protein A/G Sepharose, Western blot; precipitating antibody not given
T1 sequence: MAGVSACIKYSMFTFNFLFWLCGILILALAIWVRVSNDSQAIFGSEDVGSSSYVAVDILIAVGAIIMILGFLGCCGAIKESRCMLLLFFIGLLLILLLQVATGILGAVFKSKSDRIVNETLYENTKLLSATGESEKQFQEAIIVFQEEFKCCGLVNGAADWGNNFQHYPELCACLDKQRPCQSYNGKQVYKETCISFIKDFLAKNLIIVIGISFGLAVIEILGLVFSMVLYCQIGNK

[2] = biological target: T1, tetraspanin 8 (human (endogenous in glioma cell lines and glioma tissues)); experiment: co-IP; lysates of human glioma cell lines (CGH-5, TJ-899, SGH-44, TJ-905, U251MG); IP lysis buffer containing 3% CHAPS, indicated antibody overnight at 4 °C, protein A/G Sepharose, Western blot; precipitating antibody not given

- binding [1]: binds
- binding [2]: binds
Substance: integrin α3

Results are given in words; binding and its absence hold for the method and conditions named. In cells and extracts the contact can be indirect. Binding calls can cover weak binding; strength is not graded here.
